# In PubChem BioAssay AID485353 (National Center for Advancing Translational Sciences (NCATS), 2010):
# Hit rate of the full screen: of about 330,000 compounds, about 610 (0.18%) were called active. The inconclusive results got no clear call from the source; some entries with a clear call stand among them for comparison. Calls come from the whole dose curve. A potency beside an inconclusive call is a rough fit, not a confirmed value.
# Assay: qHTS of Yeast-based Assay for SARS-CoV PLP; note: nearly all actives have a fitted effect of over 55% in size; for activity, positive = growth rescue: 0% is about no effect
# Conditions: S. cerevisiae expressing SARS-CoV PLpro; Potency: growth rescue; activity, positive = growth rescue: at 32.9 µM (top of the series)
# Potency is the fitted concentration of half-maximal effect.
SMILES,"activity, positive = growth rescue",Potency
CCOc1ccc(NC(=O)CCNC(=O)C2CCN(S(=O)(=O)c3ccccc3)CC2)cc1,inactive: -5.51%,–
COc1cc2nc(CN3C(=O)c4ccccc4C3=O)oc(=O)c2cc1OC,–,active: 22.4 µM
Cc1ccc(-n2ncc3c2CC(C)(C)CC3NC(=O)C2CCOCC2)cc1 (centres undefined),–,"inconclusive: 20 µM [activator, single point]"
Cc1ccc(-c2nnc(Nc3cccc(O)c3)c3ccccc23)cc1S(=O)(=O)NCCO,–,"inconclusive: 10 µM [activator, single point]"
COc1ccc(C2C(C(=O)OC(C)C)=C(C)N=c3s/c(=C\c4cccs4)c(=O)n32)cc1 (centres undefined),–,"inconclusive: 10 µM [activator, single point]"
O=C(Nc1ccccc1)N1CCCC(c2nc(-c3cccs3)no2)C1 (centres undefined),–,active: 15.8 µM
Cc1ccc(NC(=O)Cn2cccc2)c(Br)c1,–,active: 2.51 µM
Cc1ccc(S(=O)(=O)N2CCN(CC(=O)N/N=C\c3ccc(Cl)c([N+](=O)[O-])c3)CC2)cc1,–,"inconclusive: 20 µM [activator, single point]"
COc1ccc(CC(=O)NC(C)c2nnc(SCc3nc4ccccc4c(=O)[nH]3)n2C)cc1 (centres undefined),–,"inconclusive: 3.98 µM [activator, single point]"
CC(=O)NCc1c(Cl)cccc1-n1cccc1,–,active: 10 µM
CCOC(=O)c1cc(CC)sc1NC(=O)c1cc(OC)c(OC)c(OC)c1,–,"inconclusive: 12.6 µM [activator, single point]"
Cn1c(/C(C#N)=C(\O)c2cc(Cl)sc2Cl)nc2ccccc21,–,"inconclusive: 17.8 µM [activator, single point]"
N#Cc1ccc(-c2ccc(OCC(=O)NCCc3ccccc3)cc2)cc1,–,"inconclusive: 3.16 µM [activator, partial curve]"
CCOC(=O)N1CCN(C(=O)c2cc3cc(C)ccc3[nH]2)CC1,–,"inconclusive: 3.55 µM [activator, single point]"
CCOc1ccc(NC(=O)CN(C)C(=O)c2c(C)nn(-c3ccc(F)cc3)c2Cl)cc1OCC,–,"inconclusive: 20 µM [activator, single point]"
CCn1c(SCC(=O)Nc2nc3ccc(OC)cc3s2)nc2c1c(=O)n(C)c(=O)n2C,inactive: 5.09%,–
O=C(CNC(=O)c1ccccc1)OCc1ccc([N+](=O)[O-])cc1,–,"inconclusive: 1.78 µM [activator, full curve, poor fit]"
CCOc1ccc(S(=O)(=O)NCCc2cn3ccccc3n2)cc1,–,"inconclusive: 3.55 µM [activator, single point]"
Cc1cc2c(c(=O)n1Cc1ccc3c(c1)OCO3)C(c1cccnc1)C(C#N)=C(N)O2 (centres undefined),–,"inconclusive: 20 µM [activator, single point]"

# Single values from the entries so far:
# Entry for CCOc1ccc(NC(=O)CCNC(=O)C2CCN(S(=O)(=O)c3ccccc3)CC2)cc1 under activity, positive = growth rescue: inactive: -5.51%
# Entry for COc1ccc(C2C(C(=O)OC(C)C)=C(C)N=c3s/c(=C\c4cccs4)c(=O)n32)cc1 (centres undefined) under Potency: inconclusive: 10 µM [activator, single point]
